First the molecules themselves.
B1: il2ra_site1_2b5i_normal_mot_HHH_b1_03543_af2_000000000_0001_42_54_H_._HHH_b1_06556_af2_0001_0000400053_0000001_0 (protein)
chain: SSSSDEEVEELFLQASRLFLNGNPEEARKVVEEALKLAEELGDEKQREELEFALERIRRSESSSS
B2: il2ra_site1_1z92_sap_13_mot_HHH_b2_00249_af2_000000052_0001_39_52_H_._HHH_b2_05896_af2_0001_0000200005_0000001_0_0001 (protein)
chain: SSSSSDEYDERIQELFHEASRITDPEEVRKLLEEAIELAREANDPRLLRDLEHFLEMRRGSSSSS
B3: il2ra_site2_2erj_normal_mot_6bd1339e93f6fdda22195c76da45ec5d_0001_000000136_0001_37_51_H_._HHH_b2_02164_0001_0000700010_0000001_0_af2pred_0001_af2pred (protein)
chain: SSSSSSELEEQVEELLEEAKRIEDKQEAIEVVLEAAHLAARAQNDELLEEVIKLSQELASSSSSS
B4: il2ra_site1_2b5i_normal_mot_HHH_b1_06258_af2_000000112_0001_42_56_H_._HHH_b1_00260_0001_0000100006_0000001_0_af2pred_0001_af2pred (protein)
chain: SSSSDEEEHEVDRLYIEASRAFLNGNPEEAQRLLEEALELAREIGDPLAEEQIRHMLELLRSSSS
B5: il2ra_site1_2b5i_normal_mot_f5ff40796168375b462bec8614a1db4a_0001_1_000000138_0001_53_65_H_._HHH_b1_00792_af2_0001_0000200014_0000001_0_af2pred_0001_af2pred (protein)
chain: SSSSDTIRHLIEALLKEAEELREKGNPERARAVLHLALATARAYNDEEAEERVKEVEERLRSSSS
B6: il2ra_site1_3nfp_normal_mot_HHH_b1_03753_af2_000000088_0001_41_54_H_._HHH_b2_07336_0001_0000200012_0000001_0_af2pred_0001_af2pred (protein)
chain: SSSSSEELSELRRRAMEAARRGDLEEARRLLEEAEEIARELGDEKQLEKIEHDLKLIELFESSSS
B7: il2ra_site2_3nfp_sap_19_mot_HHH_b1_06238_000000047_0001_1_16_H_._HHH_b2_02140_0001_0000100001_0000001_0_0001 (protein)
chain: SSSSDESEEYLRAALELAKEAIELGDREAAEKTLKLIRLAAEDANDEEALELAEELLREVGSSSS
B8: il2ra_site1_2b5i_normal_mot_HHH_b2_04910_000000118_0001_1_19_H_._HHH_b1_07627_af2_0001_0000400017_0000001_0_af2pred_dldesign_0_af2pred (protein)
chain: SSSSSALAEALALFLKADELKKAGKYEEAKKLLEEALRLAEAAGANSLARMIKLALKDLESSSSS
B9: il2ra_site1_3nfp_normal_mot_HHH_b1_00630_af2_000000193_0001_42_55_H_._HHH_b2_03971_0001_0000500036_0000001_0 (protein)
chain: SSSSTEELHHLSRLVERAYKALAEGNEEEVRELLEEARELAEELNDKVARRLLREIEKRLSSSSS
B10: il2ra_site1_2b5i_sap_10_mot_HHH_b1_06833_000000207_0001_1_19_H_._1119cc3ece11f8544cf99e05e324817a_0001_1_0001_0000300025_0000001_1_0001 (protein)
chain: SSSSSEEDRELVRFIWRLFWEFGLSHEQSRILDRVAVELLDEGLSPEEIKEILEEVAKELSSSSS
B11: il2ra_site2_2erj_sap_30_mot_3b06bd03f1c6bceadc68eab912867b79_0001_000000296_0001_36_50_H_._HHH_b1_05743_af2_0001_0000300011_0000001_0_0001 (protein)
chain: SSSSDEAEEKVEELLEEAREAYEKGDLHLVFELAVEAMRVASENNDREALRLVAEFLEELSSSSS
B12: il2ra_site2_3nfp_normal_mot_HHH_b1_02297_000000279_0001_41_58_H_._HHH_b2_08082_af2_0001_0000100002_0000001_0 (protein)
chain: SSSSDEEEIERLLERVEELIQQGDPEEARELLRELAVLAYENNDFELFARVNELLELLHRSSSSS
B13: il2ra_site1_2b5i_sap_10_mot_1b7c2b8d5952c6b49ef050017b44e09d_0001_af2_000000258_0001_1_14_H_._HHH_b1_00216_0001_0001900080_0000001_1_0001_af2pred_dldesign_0_af2 … (protein)
chain: SSSSSSGEEIRELLRKANALKQAGKAEEARKALEEALELAKKAGSNLWIKFIESALKQLESSSSS
B14: il2ra_site1_1z92_sap_24_mot_HHH_b1_08133_000000119_0001_1_19_H_._HHH_b1_00473_af2_0001_0000100001_0000001_0_0001 (protein)
chain: SSSSDEKAEEWLEFLRQQLEIAKRNNNERLLEWALELLEALARLHNDPEAEELIKELQELLSSSS
B15: il2ra_site2_3nfp_normal_mot_HHH_b2_04451_000000238_0001_21_37_H_._HHH_b1_06067_af2_0001_0000300023_0000001_0 (protein)
chain: SSSSDIEEEIKELLEEAEKLLEEGNRYEALELVARASELATEIQNPELARAILRLFLEIQSSSSS
B16: il2ra_site1_1z92_sap_20_mot_HHH_b2_03302_000000138_0001_21_37_H_._HHH_b1_01973_af2_0001_0000200009_0000001_0_0001 (protein)
chain: SSSSDEVREIAELVAKVAAKFKLDWEDLKILDEVALRLLERGVSEEEIEELLEEEAEKLQSSSSS
B17: il2ra_site2_2erj_normal_mot_HHH_b2_03383_af2_000000035_0001_21_37_H_._HHH_b2_06641_0001_0000600028_0000001_0 (protein)
chain: SSSSDVEERVEELLQEAERLLEEGNPEEAEKLVSEAFELAYEANDPRLAALVIEVAQKIFKSSSS
B18: il2ra_site2_2erj_sap_25_mot_35d2dc24e2c4431f89e6f806b163ecf8_0001_af2_000000103_0001_35_49_H_._HHH_b2_01993_0001_0000500009_0000001_0_0001 (protein)
chain: SSSSDVEERVKELLEEIERAYEEGDLHEAFRLMDEVFHVAAKNQNEELLQEISELLQRLSGSSSS
B19: il2ra_site2_3nfp_normal_mot_HHH_b1_05627_af2_000000038_0001_43_56_H_._HHH_b1_04379_0001_0000100005_0000001_1 (protein)
chain: SSSSDKAEEYLEVALLTLEELIREGSEEAVEEVIEAIESLAEALNDEEIEERLRKLEEEFSSSSS
B20: il2ra_site1_3nfp_normal_mot_b176b53c9fc434b7e847e53bae38b177_0001_000000049_0001_1_15_H_._4da89dcd188de4ef9c33b420109b66a0_0001_0001_0000500014_0000001_1 (protein)
chain: SVEELVERIVREGDPRLEEEFEELVREISEKHDPELAEAIIRVLARLQRINPELVRRLRELLVRT
B21: il2ra_site1_1z92_normal_mot_6c2800a769814540b5b47941e710ff28_0001_af2_000000005_0001_35_49_H_._6228ca5b8b091676f337a4c0a06dbe92_0001_0003_0000300038_0000001_0 (protein)
chain: DEFLIEQLLRKIEAGNEESAERIIERLLKNAGIPPEEVERIVEELLKLLKDGDPEEARKLLREAP
B22: il2ra_site1_1z92_sap_20_mot_HHH_b1_00368_000000203_0001_23_39_H_._HHH_b2_00211_af2_0001_0000100014_0000001_0_0001 (protein)
chain: PEYLEEDFERARQLGIPPEKVAMALLKALKAQGIPPEEVEELVEEVLELLLGDPEEAKRVLRRAK
B23: il2ra_site1_3nfp_sap_16_mot_HHH_b1_07204_af2_000000187_0001_41_55_H_._HHH_b1_00144_af2_0001_0000400024_0000001_0_0001 (protein)
chain: SSSSDQELARAVDEALRLAMRLGDHELAQRLFEIAMRLAREGDERLHEELEELIEEVEKLGSSSS
B24: il2ra_site2_2erj_sap_20_mot_HHH_b1_02757_000000041_0001_41_57_H_._HHH_b1_08686_0001_0000300033_0000001_0_0001 (protein)
chain: SSSSSESLEALEEMLEELFKEGNRSSIELILRFLEASYKKTGDPELERLIELARELLEELSSSSS

The values that follow come from PMC10163288.

Some of the results follow.

The target of this test is il2ra, P01589. Description: yeast display titration.
As to B1, the “apparent Kd” value is “inactive: no binding seen”.
On to B2, for which the “apparent Kd” value is “inactive: no binding seen”.
Turning to B3, the “apparent Kd” value is “inactive: no binding seen”.
On to B4, for which the “apparent Kd” value was “inactive: no binding seen”.
Regarding B5, the “apparent Kd” value is “inactive: no binding seen”.
For B6, the “apparent Kd” value is “inactive: no binding seen”.
Take B7: the “apparent Kd” value is “inactive: no binding seen”.
For B8, the “apparent Kd” value is “inactive: no binding seen”.
As for B9, the “apparent Kd” value was “inactive: no binding seen”.
As to B10, the “apparent Kd” value is “inactive: no binding seen”.
For B11, the “apparent Kd” value is “inactive: no binding seen”.
Regarding B12, the “apparent Kd” value was “inactive: no binding seen”.
For the molecule B13, the “apparent Kd” value is “inactive: no binding seen”.
Take B14: the “apparent Kd” value is “inactive: no binding seen”.
On to B15, for which the “apparent Kd” value was “inactive: no binding seen”.
For B16, the “apparent Kd” value was “inactive: no binding seen”.
In the case of B17, the “apparent Kd” value was “inactive: no binding seen”.
In the case of B18 it was “inactive: no binding seen”; in that of B19, “inactive: no binding seen”; in that of B20, “inactive: no binding seen”.
On to B21, for which the “apparent Kd” value is “inactive: no binding seen”.
On to B22, for which the “apparent Kd” value is “inactive: no binding seen”.
Consider B23, for which the “apparent Kd” value is “inactive: no binding seen”.
For B24 the value was “inactive: no binding seen”.
